Reference: PubChem BioAssay AID1259425 (University of Nebraska Medical Center, 2018)
Shown is an unselected part of about 14,000 reagents tested. No sequences are given here. Not stated in the record: the time to read-out.

Aim: 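Find knockdowns that reproduce the gene expression pattern seen when KSR1 is lost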 (primary screen)
Cell system: HCT116 human colon cancer cells
Reagents: siRNA pool against human genes, 50 nM siRNA
Measured: 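After 50 nM siRNA pool, branched-DNA assay measures six marker transcripts per well, minus blank, normalised to the geometric mean of two housekeeping transcripts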
Scale: BNIP3L mRNA: higher = more BNIP3L transcript after knockdown; NDRG1 mRNA: higher = more NDRG1 transcript after knockdown; BNIP3 mRNA: higher = more BNIP3 transcript after knockdown; ALDOC mRNA: higher = more ALDOC transcript after knockdown; ACSL5 mRNA: higher = more ACSL5 transcript after knockdown

gene symbol	BNIP3L mRNA, set 1	NDRG1 mRNA, set 1	BNIP3 mRNA, set 1	ALDOC mRNA, set 1	ACSL5 mRNA, set 1
SP3	0.0579	0.096	0.159	0.00608	0.106
TECPR2	0.145	0.938	0.263	0.0333	0.215
TMOD4	0.137	0.118	0.341	0.0344	0.128
GML	0.124	0.194	0.354	0.0625	0.152
PRDX2	0.0422	0.0781	0.191	0.00655	0.0619
SCRG1	0.116	0.404	0.314	0.0488	0.204
PSMD9	0.115	0.443	0.293	0.0147	0.411
NUDT9	0.287	0.202	0.302	0.0572	0.122
TKFC	0.0862	0.0808	0.354	0.0104	0.325
SF3B2	0.128	0.365	0.13	0.00206	0.0948
ANKH	0.0279	0.248	0.34	0.0226	0.252
PAX1	0.193	0.242	0.602	0.0182	0.421
TFPI2	0.0866	0.596	0.274	0.052	0.19
RPL7	0.266	0.383	0.49	0.0434	0.208
NUP42	0.155	0.084	0.308	0.0308	0.0547
SUPT16H	0.115	0.153	0.302	0.018	0.14
HTN1	0.0568	0.0728	0.198	0.0126	0.157
P4HTM	0.0748	0.232	0.247	0.0154	0.122
SHANK3	0.0819	0.0427	0.186	0.0233	0.0891
UGDH	0.139	0.147	0.257	0.0185	0.136
CEP78	0.226	0.227	0.328	0.151	0.251
SH3GL1	0.179	0.199	0.291	0.0287	0.142
CLCNKB	0.0846	0.12	0.308	0.0173	0.153
LPAR1	0.256	0.148	0.292	0.044	0.134

The list goes on (5 carried over from the part before).
gene symbol	BNIP3L mRNA, set 1	NDRG1 mRNA, set 1	BNIP3 mRNA, set 1	ALDOC mRNA, set 1	ACSL5 mRNA, set 1
UGDH	0.139	0.147	0.257	0.0185	0.136
CEP78	0.226	0.227	0.328	0.151	0.251
SH3GL1	0.179	0.199	0.291	0.0287	0.142
CLCNKB	0.0846	0.12	0.308	0.0173	0.153
LPAR1	0.256	0.148	0.292	0.044	0.134
TOM1L1	0.115	0.148	0.263	0.0103	0.107
RGS3	0.192	0.513	0.278	0.109	0.235
EAPP	0.0696	0.023	0.346	0.0301	0.129
TBC1D10B	0.149	0.271	0.449	0.0704	0.148
GNAO1	0.168	0.231	0.431	0.0185	0.175
ID4	0.0616	0.078	0.169	0.0109	0.151
CRIP1	0.173	0.121	0.229	0.0253	0.134
LGALS13	0.172	0.0784	0.275	0.0263	0.145
SERPINA6	0.0918	0.116	0.244	0.00187	0.308
SMCO4	0.167	0.577	0.362	0.0914	0.273
MYH13	0.0661	0.0843	0.332	0.0193	0.224
PROSER1	0.0579	0.248	0.449	0.0897	0.128
LOX	0.0734	0.121	0.223	0.0164	0.164
GABRG1	0.0572	0.0744	0.185	0.0235	0.0757
ZBTB21	0.0754	0.234	0.31	0.0105	0.207
RPS6KL1	0.109	0.32	0.19	0.0117	0.305
HTR4	0.119	0.181	0.273	0.014	0.266
ASB2	0.0682	0.113	0.33	0.0426	0.151
CA5A	0.112	0.262	0.24	0.0297	0.0779
LDHA	0.266	0.325	0.442	0.0534	0.156
BCAT2	0.0441	0.0631	0.148	0.0231	0.119
DACH1	0.0785	0.15	0.291	0.0152	0.24
ISL1	0.0721	0.206	0.273	0.00899	0.114
AVP	0.123	0.15	0.289	0.0129	0.122
TLR5	0.0686	0.138	0.323	0.0252	0.148
FBXL15	0.0923	0.0864	0.301	0.0134	0.256
CNOT6L	0.1	0.285	0.289	0.0116	0.239
SRD5A3	0.129	0.183	0.231	0.0318	0.114
PPP1CB	0.0507	0.178	0.245	0.0211	0.232
H3C7	0.101	0.0906	0.288	0.0245	0.0589
BMP15	0.144	0.136	0.255	0.0429	0.176
ITGAE	0.0485	0.106	0.281	0.0184	0.07
WFDC1	0.118	0.0827	0.215	0.0219	0.156
FBLN1	0.0833	0.145	0.286	0.0229	0.136
PPIL4	0.103	0.213	0.15	0.025	0.21
MAPKBP1	0.0638	0.109	0.242	0.0114	0.183
ASTN2	0.188	0.767	0.393	0.0415	0.408
NRN1	0.132	0.315	0.449	0.00896	0.191
MRPS27	0.094	0.458	0.283	0.0197	0.338
